# Experimental data published in the supplement of paper PMC10331698.
# ± gives the standard deviation of the averaged measurements. Small differences around the control level are noise.
# What was measured:
# Assay in all cases: level (log10 ratio to DMSO vehicle control); higher = higher biomarker level / cell amount than vehicle control
# [1] = compound: C=C(C)C(=O)OCC(F)(F)C(F)(F)C(F)(F)F [2,2,3,3,4,4,4-Heptafluorobutyl methacrylate]; conditions: 2200 nM; in DMSO
# Method: (§1)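 BioMAP Diversity Plus panel of 12 human primary cell co-culture systems (3C, 4H, LPS, SAg, BT, BF4T, BE3C, CASM3C, HDF3CGF, KF3CT, MyoF, Mphg). Compounds were added 1 h before stimulation and left for 24 h (MyoF 48 h; BT 72 h for soluble read-outs or 6 d for IgG). Biomarkers were read by ELISA, cytotoxicity by SRB, PBMC viability and proliferation by Alamar Blue. Each well value was divided by the mean of 8 DMSO control wells on the same plate and log10 transformed; duplicate blinded samples were tested at 4 concentrations.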
# [2] = compound: C=CC(=O)OCC(F)(F)C(F)(F)C(F)(F)C(F)(F)COC(=O)C=C [1H,1H,6H,6H-Perfluorohexane-1,6-diol diacrylate]; conditions: 2200 nM; in DMSO
# Method: as §1
# [3] = compound: FC(F)(F)C(F)(F)C(F)(F)C(F)(F)C(F)(F)C(F)(F)C(F)(F)CCI [1-Iodo-1H,1H,2H,2H-perfluorononane]; conditions: in DMSO
# Method: as §1
# [4] = compound: FC(F)(F)C(F)(F)C(F)(F)C(F)(F)C(F)(F)C(F)(F)C(F)(F)I [1-Iodopentadecafluoroheptane]; conditions: in DMSO
# Method: as §1
# [5] = compound: FC(F)C(F)(F)COCC1CO1 [((2,2,3,3-Tetrafluoropropoxy)methyl)oxirane]; conditions: 2200 nM; in DMSO
# Method: as §1
# [6] = compound: NC(=O)C(F)(F)C(F)(F)C(F)(F)C(F)(F)C(F)(F)C(F)(F)C(F)(F)F [Perfluorooctanamide]; conditions: 2200 nM; in DMSO
# Method: as §1
# [7] = compound: O=C(O)C(F)(F)C(F)(F)C(F)(F)C(F)(F)C(F)(F)C(F)(F)C(F)(F)C(F)(F)C(F)(F)C(F)(F)F [Perfluoroundecanoic acid]; conditions: in DMSO
# Method: as §1
# [8] = compound: O=C(O)C(F)(F)C(F)(F)C(F)(F)C(F)(F)C(F)(F)C(F)(F)C(F)(F)C(F)F [9-H-Perfluorononanoic acid]; conditions: 2200 nM; in DMSO
# Method: as §1
# [9] = compound: O=C(O)C(F)(F)C(F)(F)C(F)(F)F [Perfluorobutanoic acid]; conditions: 2200 nM; in DMSO
# Method: as §1
# [10] = compound: O=C(O)C(F)(F)C(F)(F)F [Perfluoropropanoic acid]; conditions: 2200 nM; in DMSO
# Method: as §1
# [11] = compound: O=C(O)C(F)(F)C(F)(F)OC(F)(F)F [Perfluoro-3-methoxypropanoic acid]; conditions: 2200 nM; in DMSO
# Method: as §1
# [12] = compound: O=C(O)C(F)(F)OC(F)(F)C(F)(F)OC(F)(F)C(=O)O [Perfluoro-3,6-dioxaoctane-1,8-dioic acid]; conditions: 2200 nM; in DMSO
# Method: as §1
# [13] = compound: O=C(O)C(F)(F)OC(F)(F)C(F)(F)OC(F)(F)C(F)(F)C(F)(F)C(F)(F)F [Perfluoro-3,6-dioxadecanoic acid]; conditions: 2200 nM; in DMSO
# Method: as §1
# [14] = compound: O=C(O)C=CC(F)(C(F)(F)F)C(F)(F)F [3-(Perfluoroisopropyl)-2-propenoic acid]; conditions: in DMSO
# Method: as §1
# [15] = compound: O=P(O)(O)CCC(F)(F)C(F)(F)C(F)(F)C(F)(F)C(F)(F)C(F)(F)C(F)(F)C(F)(F)F [((Perfluorooctyl)ethyl)phosphonic acid]; conditions: 2200 nM; in DMSO
# Method: as §1
# [16] = compound: O=S(=O)(Cl)C(F)(F)C(F)(F)C(F)(F)C(F)(F)C(F)(F)C(F)(F)C(F)(F)C(F)(F)F [Perfluoro-1-octanesulfonyl chloride]; conditions: 2200 nM; in DMSO
# Method: as §1
# [17] = compound: OCC(F)(F)C(F)(F)C(F)(F)C(F)(F)C(F)(F)C(F)(F)C(F)(F)C(F)(F)C(F)(F)C(F)(F)C(F)(F)F [11:1 Fluorotelomer alcohol]; conditions: in DMSO
# Method: as §1
# [18] = compound: OCCC(F)(F)C(F)(F)C(F)(F)C(F)(F)C(F)(F)C(F)(F)C(F)(F)C(F)(F)F [8:2 Fluorotelomer alcohol]; conditions: 2200 nM; in DMSO
# Method: as §1
Test System,level (log10) [1],level (log10) [2],level (log10) ([3]; 740 nM),level (log10) ([3]; 2200 nM),level (log10) ([3]; 6700 nM),level (log10) ([3]; 20000 nM),level (log10) ([4]; 740 nM),level (log10) ([4]; 2200 nM),level (log10) ([4]; 6700 nM),level (log10) ([4]; 20000 nM),level (log10) [5],level (log10) [6],level (log10) ([7]; 740 nM),level (log10) ([7]; 2200 nM),level (log10) [8],level (log10) [9],level (log10) [10],level (log10) [11],level (log10) [12],level (log10) [13],level (log10) ([14]; 2200 nM),level (log10) ([14]; 6700 nM),level (log10) ([14]; 20000 nM),level (log10) ([14]; 60000 nM),level (log10) [15],level (log10) [16],level (log10) ([17]; 370 nM),level (log10) ([17]; 1100 nM),level (log10) ([17]; 3300 nM),level (log10) ([17]; 10000 nM),level (log10) [18]
lMphg:CXCL8/IL-8,0.0435 ± 0.037,-0.0085 ± 0.021,0.0145 ± 0.0021,0 ± 0.03,0.007 ± 0.013,0.0695 ± 0.0078,-0.013 ± 0.0099,0.021 ± 0.021,-0.018 ± 0.0071,0.0165 ± 0.019,0.0395 ± 0.0092,0.014 ± 0.0099,0.021 ± 0.021,0.0225 ± 0.026,0.0355 ± 0.028,0.017 ± 0.069,0.022 ± 0.0028,0.004 ± 0.027,0.001 ± 0.011,0.0255 ± 0.0092,0.0005 ± 0.04,-0.0225 ± 0.0021,-0.006 ± 0.0028,0.0415 ± 0.054,0.0025 ± 0.043,0.003 ± 0.028,0.042 ± 0.0085,0.111 ± 0.042,0.127 ± 0.033,0.0445 ± 0.0064,0.0425 ± 0.056
lMphg:IL-1alpha,0.011 ± 0.023,0.022 ± 0.025,0.0075 ± 0.097,-0.02 ± 0.04,-0.012 ± 0.014,0.055 ± 0.045,0.044 ± 0.021,0.0255 ± 0.012,0.03 ± 0.045,0.014 ± 0.0085,-0.0075 ± 0.057,0.0205 ± 0.032,0.028 ± 0.058,0.0105 ± 0.057,0.0275 ± 0.042,0.049 ± 0.033,-0.034 ± 0.037,0.0075 ± 0.043,0.02 ± 0.023,-0.0185 ± 0.028,-0.0155 ± 0.054,-0.0055 ± 0.037,0.0095 ± 0.016,-0.0025 ± 0.012,-0.0155 ± 0.028,0.017 ± 0.037,0.049 ± 0.028,0.057 ± 0.025,0.039 ± 0.0085,-0.12 ± 0.076,0.009 ± 0.033
